# Measured values published in PubChem BioAssay AID1347075 (National Center for Advancing Translational Sciences (NCATS), 2019).
# Among all 400,000 compounds or so, about 5,500 (1.4%) were called active. The shares of active, inactive and inconclusive entries below differ from those in the screen. Calls come from the whole dose curve; as a rule, active = well fitted cell-killing curve with a large enough effect; inconclusive = small, poorly fitted or top-dose-only effect, or effect the other way; inactive = flat fitted curve, though single readings scatter. A potency beside an inconclusive call is a rough fit, not a confirmed value.
# Assay: qHTS assay for MDR1-selective chemotherapeutics: Primary screen using the parental adenocarcinoma cell KB-3-1; note: nearly all actives have a fitted effect of over 60% in size
# Details: KB-3-1 viability, CellTiter-Glo ATP luminescence, 72 h; activity change, negative = cytotoxic: at 46.1 µM (top of the series)
# Summary of the method: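 KB-3-1 cells, DMEM (no phenol red) + 10% FBS; compound by pin transfer, 72 h, 37 °C. Readout: CellTiter-Glo luminescence after 10 min. Data normalized, curve-fitted.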
# % is set by controls: 0 for no effect and ±100 for the full control effect; potency is the fitted concentration of half-maximal effect.
SMILES,Potency,"activity change, negative = cytotoxic"
CN1CCN(c2nc3c(S(=O)(=O)c4ccccc4)nnn3c3ccsc23)CC1,inactive,
CN(C)CCOC(=O)CC12CC3CC(C1)CC(CC(=O)OCCN(C)C)(C3)C2,inactive,
Cn1nnc2c[n+](CC(=O)c3ccc4ccccc4c3)cc(Br)c21,"inconclusive: 2.06 µM [cytotoxic, full curve, poor fit]",
Cc1nc(C2CCCCC2)c(-c2ccccc2)c(N2CCOC2=O)c1C,"inconclusive: 29.1 µM [cytotoxic, single point]",
O=S(=O)(NCCc1csc(-c2cccnc2)n1)c1cccs1,inactive,
COc1cc(Nc2nc3ccc(Cl)cc3n3cnnc23)cc(OC)c1OC,"inconclusive: 29.1 µM [cytotoxic, single point]",
O=C(COC(=O)c1cc(=O)[nH]c(=O)[nH]1)Nc1ccccc1F,inactive,
CCc1noc(C)c1C(=O)NNC(=O)c1nn(C)c(=O)c2ccccc12,inactive,
Cc1ccc(NC(=O)c2ccc(N3CCOCC3)c([N+](=O)[O-])c2)cc1S(=O)(=O)N1CCOCC1,active: 20.6 µM,
O=C(Nc1ncccn1)c1ccc(Cl)c([N+](=O)[O-])c1,"inconclusive: 29.1 µM [cytotoxic, single point]",
O=C(Cn1cc(/C=N/NC(=O)c2cccc3ccccc23)c2ccccc21)Nc1ccc(F)cc1,"inconclusive: 3.66 µM [cytotoxic, full curve, poor fit]",
CCOc1cc(/C=N/N=C(\N)c2nonc2N)cc(Br)c1OCc1cccc2ccccc12,"inconclusive: 16.4 µM [cytotoxic, single point]",
CN(CC(=O)Nc1ccc(Cl)c(C(F)(F)F)c1)C(=O)CCCNC(=O)c1ccc(Cl)cc1,"inconclusive: 20.6 µM [cytotoxic, single point]",
Cc1cc(C(=O)N/N=C/c2cc(Br)ccc2OC(=O)c2ccccc2Cl)n[nH]1,"inconclusive: 18.4 µM [cytotoxic, partial curve, poor fit]",
CCOc1ccc(C(=O)Nc2cccc(OCc3cc(=O)n4cc(C)sc4n3)c2)cc1,inactive,
CCCCOC(=O)c1cccc(NC(=O)c2cc3ccccc3o2)c1,inactive,
Cc1ccccc1S(=O)(=O)Cc1ccc(C(=O)NCCCN2CCCC(C)C2)o1 (stereo not given),inactive,
COc1cccc(CNC(=O)N2CCN(c3ccccc3)CC2)c1,inactive,
COc1ccc(Cc2nnc(Nc3ccc4c(c3)OCCO4)[nH]c2=O)cc1,"inconclusive: 20.6 µM [cytotoxic, single point]",
CN1CCN(c2ccc(NC(=O)c3ccc(-c4cccc([N+](=O)[O-])c4)o3)cc2)CC1,inactive,
CCc1ccc(NC(=O)CSc2nc3n[nH]c(C)c3c(=N)n2-c2cccc(OC)c2)cc1,inactive,
COc1ccc(C2CC(c3ccc4ccccc4c3)=NN2C(=O)CN2CCC(C(N)=O)CC2)cc1 (stereo not given),"inconclusive: 13 µM [cytotoxic, partial curve]",
CCOC(=O)CCCc1ccc(/C(C)=N/NC(N)=S)cc1,"inconclusive: 9.2 µM [cytotoxic, partial curve, poor fit]",
CCC(C)(C)n1nnnc1C(c1cccc(C#N)c1)N1CCN(c2cccc(C)c2C)CC1 (stereo not given),"inconclusive: 32.6 µM [cytotoxic, partial curve, poor fit]",

SMILES,Potency,"activity change, negative = cytotoxic"
CC(C)c1ccc2oc(=O)cc(CN3CCOCC3)c2c1,inactive,
C#CCn1c(=NC(=O)c2cccs2)sc2cccc(OC)c21,"inconclusive: 20.6 µM [cytotoxic, single point]",
Cc1ccc2cc(CN(c3ccc(C)c(C)c3)S(C)(=O)=O)c(=O)[nH]c2c1,"inconclusive: 32.6 µM [cytotoxic, single point]",
COc1cc(OC)c(OC)cc1/C=N/N(C)c1ccccc1,inactive,
COc1ccc(CNc2cccnc2Cl)cc1,,inconclusive: 0.355%
COc1ccc(OC)c2c1C(=O)C(Cl)=C(Cl)C2=O,active: 5.8 µM,
O=c1c(Cl)c(Cl)cnn1Cc1nnc(-c2ccc(Cl)cc2)o1,"inconclusive: 20.6 µM [cytotoxic, partial curve]",
Cc1cc(C)c(S(=O)(=O)NCCc2ccncc2)c(C)c1,inactive,
COc1cccc(C(=O)N/N=C/C(Br)=C/c2ccccc2)c1,"inconclusive: 6.51 µM [cytotoxic, full curve, poor fit]",
O=c1cc(CSc2n[nH]c(-c3ccccc3)n2)[nH]c2ccccc12,"inconclusive: 32.6 µM [cytotoxic, single point]",
CCCCCCC(=O)Nc1ccc(C(=O)N/N=C/c2cccnc2)cc1,"inconclusive: 29.1 µM [rising, partial curve, poor fit]",
COC(=O)C(C)SC1=N/C(=C/c2ccc(-n3cncn3)cc2)C(=O)N1 (stereo not given),inactive,
CCN(CC)Cc1c(O)ccc2c([N+](=O)[O-])c(C)n(-c3ccc(OC)cc3)c12,"inconclusive: 32.6 µM [cytotoxic, partial curve, poor fit]",
Cc1ccccc1OCC(=O)Nc1ccc(N2CCN(C(=O)C(C)C)CC2)c(Cl)c1,"inconclusive: 18.4 µM [cytotoxic, single point]",
CCSC1(SCC)N=C(N)C2(C#N)C(c3ccc(OC)c(OC)c3OC)C12C#N (stereo not given),"inconclusive: 20.6 µM [cytotoxic, single point]",
CCC(=O)N(C1=C(NC)C(=O)c2ccccc2C1=O)C(C)C,active: 2.59 µM,
Cc1cccc(NC(=O)c2nc[nH]c2C(=O)N[C@@H](Cc2ccccc2)C(=O)OC(C)(C)C)c1,"inconclusive: 29.1 µM [cytotoxic, single point]",
CCCN(c1ccc(OCC)cc1)S(=O)(=O)c1ccc2c(c1)NC(=O)CO2,"inconclusive: 0.517 µM [cytotoxic, full curve, poor fit]",
COc1cc2nc(CSc3ncn[nH]3)[nH]c(=O)c2cc1OC,"inconclusive: 13 µM [rising, single point]",
Nc1cc(=O)[nH]c(SCC(=O)Nc2ccc3c(c2)CCC3)n1,"inconclusive: 29.1 µM [cytotoxic, partial curve, poor fit]",
COc1ccc(NC(=O)c2c(C)oc3ccc(O)c(CN4CCCCCC4)c23)cc1Cl,"inconclusive: 29.1 µM [cytotoxic, single point]",
O=C(c1ccco1)N(CC1CCCO1)c1nc(-c2ccccc2)cs1 (stereo not given),"inconclusive: 14.6 µM [cytotoxic, partial curve]",
O=C(C(=O)N1CCN(c2ccccc2)CC1)c1ccco1,inactive,
O=c1[nH]c2ccc(Cl)cc2c(-c2ccccc2)c1N1CCN(CCO)CC1,inactive,

# 3 compounds drawn at random from those above, as already listed:
SMILES,Potency,"activity change, negative = cytotoxic"
COc1cc2nc(CSc3ncn[nH]3)[nH]c(=O)c2cc1OC,"inconclusive: 13 µM [rising, single point]",
COc1ccc(OC)c2c1C(=O)C(Cl)=C(Cl)C2=O,active: 5.8 µM,
O=c1[nH]c2ccc(Cl)cc2c(-c2ccccc2)c1N1CCN(CCO)CC1,inactive,

# Additional entries follow.

SMILES,Potency,"activity change, negative = cytotoxic"
COc1ccc(Nc2nc3c(S(=O)(=O)c4ccccc4)nnn3c3ccsc23)cc1OC,inactive,
O=C(Cc1ccc(F)cc1)NCCc1ccccc1,inactive,
COc1cccc(NC(=O)N2CCc3nc(Nc4cc(Cl)cc(Cl)c4)ncc3C2)c1,"inconclusive: 29.1 µM [cytotoxic, single point]",
COc1ccc(C(=O)N2CCOCC2)cc1S(=O)(=O)N1CCCc2ccccc21,,inconclusive: 8.17%
O=C(NCCc1ccc2c(c1)OCCO2)c1cccc(F)c1,"inconclusive: 16.4 µM [cytotoxic, single point]",
COc1ccccc1NS(=O)(=O)c1cc(NC(=O)c2cccnc2)ccc1N1CCCCC1,"inconclusive: 18.4 µM [cytotoxic, single point]",
CCn1cc(C(=O)NCc2ccc3c(c2)OCO3)c(=O)c2cc(F)c(N3CCN(C(=O)c4ccco4)CC3)cc21,"inconclusive: 23.1 µM [cytotoxic, single point]",
COc1cc(-c2ccc3ncnc(NCc4ccc(C)o4)c3c2)cc(OC)c1OC,,inconclusive: -33%
CCc1nc2ccccc2n1Cc1ccccc1OC,"inconclusive: 23.1 µM [cytotoxic, single point]",
CC1Cc2cc(S(=O)(=O)N3CCN(c4ccccc4F)CC3)ccc2N1C(=O)C1CC1 (stereo not given),"inconclusive: 20.6 µM [cytotoxic, partial curve]",
COc1ccc(-c2nc(C)c(CCNC(=O)C(=O)Nc3cc(C)cc(C)c3)s2)cc1OC,"inconclusive: 16.4 µM [cytotoxic, single point]",
CS(=O)(=O)c1ncc(Cl)c(C(=O)Nc2ccc(OC(F)F)cc2)n1,"inconclusive: 18.4 µM [cytotoxic, single point]",
COc1cc2ccc(C(C)=NNC(N)=S)cc2cc1OC,inactive,
CN(Cc1ccccc1)C(=O)CSc1nc2cc(C(=O)N3CCC(C(N)=O)CC3)ccc2c(=O)n1-c1ccccc1,"inconclusive: 20.6 µM [rising, single point]",
COc1ccc(-c2noc(-c3ccccc3C(=O)Nc3cccnc3)n2)cc1,inactive,
Cc1ccccc1C(=O)Nc1c(C)nc(Nc2ccccc2)nc1Nc1ccccc1,"inconclusive: 20.6 µM [cytotoxic, single point]",
O=C(N/N=C/C=N/NC(=O)c1ccco1)c1ccco1,inactive,
COc1cc(C(=O)NCCNC(=O)c2ccco2)cc(OC)c1OC,inactive,
O=c1oc2ccccc2c(Nc2ccc3ccccc3c2)c1[N+](=O)[O-],"inconclusive: 29.1 µM [cytotoxic, single point]",
CC(=O)Oc1ccc2ccc(=O)oc2c1,"inconclusive: 0.0092 µM [rising, full curve]",
O=C(COC(=O)c1ccc([N+](=O)[O-])cc1)Nc1cccnc1Cl,"inconclusive: 29.1 µM [rising, single point]",
COC(=O)Cn1c(C)c(/C=C/c2cc[n+](C)cc2)c2ccccc21,"inconclusive: 23.1 µM [cytotoxic, partial curve, poor fit]",
